Some of the results follow. These are further read-outs of the screen, such as a control signal, another cell line or another target. No call is given for them. Most of these compounds were active or inconclusive in the main read-out, so they are no random draw. Potencies come from curve fits of mixed quality, noted in brackets.
Experiment: qHTS Assay to Find Inhibitors of Chronic Active B-Cell Receptor Signaling
Details: ABC-DLBCL IkBa-CBG/CBR reporter, luminescence ratio (green luciferase fused to IkBa over red control in TMD8 lymphoma cells), 4 h
How it was run: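 Cell line TMD8 (human ABC DLBCL), stably expressing tet-inducible CBG68-IkBa fusion and CBR; IMDM/0.5% FBS; cpd up to 46 uM; dox induction, 4 h, 37C/5% CO2; dual luminescence; green/red ratio; MG132 control.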

[1] = measured here: CBR red luminescence, cell number

COC(=O)Cn1c(C)nc2ccccc21
AC50 [1]: 0.00517 µM [falling, full curve, poor fit]

Cc1ccc(Cl)cc1NS(=O)(=O)c1ccc2oc(=O)ccc2c1
AC50 [1]: 35.5 µM [falling, single point]

COc1ccccc1N1CCN(Cc2ccc(O)c3ncccc23)CC1
AC50 [1]: 29.1 µM [falling, single point] | AC50 (measured here: IkBa-CBG green luminescence): 0.651 µM [falling, full curve, poor fit]

O=C(NCCN1C(=O)S/C(=C\c2ccccc2F)C1=O)C1=COCCO1
AC50 [1]: 16.4 µM [falling, single point]

Cc1ccc(O)c(-c2cc(-c3ccc(F)cc3)no2)c1
AC50 [1]: 11.2 µM [falling, partial curve]

Cc1csc(NC(=O)C2CCN(C(=O)c3ccccc3C)CC2)n1
AC50 [1]: 12.6 µM [falling, partial curve, poor fit]

CC(C)c1nn2c(=O)cc(CSc3ccccc3NC(=O)c3ccccc3F)nc2s1
AC50 [1]: 14.1 µM [falling, partial curve, poor fit]

CC1(C)CC(=O)C(CS(=O)(=O)c2ccccc2)=C(Cl)C1
AC50 [1]: 5.62 µM [falling, partial curve, poor fit]

CCOC(=O)c1ccccc1NC(=O)Cn1c(=O)n(-c2ccc(CC)cc2)c(=O)c2c(C)c(C(=O)N(C)C)sc21
AC50 [1]: 11.2 µM [falling, partial curve, poor fit]

c1ccc(CCNc2nc3ccccc3s2)cc1
AC50 [1]: 13 µM [falling, single point]

Cc1ccccc1-n1nc(C)c2c(C(=O)NN)cc(-c3ccncc3)nc21
AC50 [1]: 12.6 µM [falling, single point]

Cc1ccc(NC(=O)CCNC(=O)c2ccc([N+](=O)[O-])cc2)cc1C
AC50 [1]: 0.0631 µM [rising, full curve, poor fit]

O=C1OCCC1Sc1nnc(-c2ccc(Br)cc2)o1 (configuration not stated)
AC50 [1]: 4.11 µM [falling, partial curve]

Cc1ccc(CCN2CC(C(=O)NCCC(C)C)CC2=O)cc1 (configuration not stated)
AC50 [1]: 35.5 µM [rising, single point]

O=c1c(-c2ccc(O)cc2O)coc2cc(O)cc(O)c12
AC50 [1]: 7.08 µM [rising, full curve, poor fit]

CCOC(=O)c1ccsc1NC(=O)CCS(=O)(=O)c1ccccc1
AC50 [1]: 11.2 µM [falling, partial curve, poor fit]

CCOc1ccc2nc(SCC(=O)Nc3cccc(S(=O)(=O)NC4=NCCCCC4)c3)[nH]c2c1
AC50 [1]: 7.08 µM [falling, partial curve]

NS(=O)(=O)c1ccc(NC(=S)NNC(=O)c2ccc(Br)o2)cc1
AC50 [1]: 22.4 µM [falling, single point]

Nc1ccc([N+](=O)[O-])cc1C(=O)NNC(=O)c1ccco1
AC50 [1]: 15.8 µM [falling, single point]

O=C(OC1CCOC1=O)c1ccc(-c2nc3ccccc3s2)s1 (configuration not stated)
AC50 [1]: 5.62 µM [falling, partial curve, poor fit]

COC(=O)Cc1c(C)nc2nc(-c3ccccc3)[nH]n2c1=O
AC50 [1]: 5.8 µM [falling, partial curve]

CCc1ccc(C(=O)COC(=O)c2cccs2)cc1
AC50 [1]: 0.731 µM [rising, full curve, poor fit]

CCC(=O)NC1(C(F)(F)F)C(=O)NC(C)=C1C#N (configuration not stated)
AC50 [1]: 18.4 µM [falling, partial curve, poor fit]

Cc1ccc2cccc(NC(=S)NC(=O)c3ccnn3C)c2n1
AC50 [1]: 0.146 µM [rising, full curve, poor fit]

CCOC(=O)CSc1ccc(-c2nc3ccccc3[nH]2)cn1
AC50 [1]: 11.6 µM [falling, partial curve, poor fit]

CN(C)c1ccc(NC(=O)COC(=O)CNC(=O)c2cccs2)cc1
AC50 [1]: 0.092 µM [rising, full curve, poor fit]

Cc1ccc(S(=O)(=O)Oc2ccc(/C=N/NC(=O)c3c(Cl)cnn3C)cc2)cc1
AC50 [1]: 18.4 µM [falling, partial curve]

CN1CCN(C(=O)CCN2C(=O)/C(=C\c3ccc(Cl)cc3Cl)SC2=S)CC1
AC50 [1]: 1.26 µM [falling, full curve, poor fit]

Cc1cc2nc(-c3cccc(NC(=O)C(C)C)c3C)oc2cc1C
AC50 [1]: 1.12 µM [falling, full curve]

COc1cc(/C(C)=N/NC(=O)c2cccc(S(=O)(=O)N3CCCC3)c2)cc(OC)c1OC
AC50 [1]: 14.1 µM [falling, partial curve, poor fit]

COc1cc(OC)c(OC)cc1/C=C/c1nc2cc3ccccc3cc2c(=O)n1-c1ccc(F)c(Cl)c1
AC50 [1]: 8.91 µM [falling, partial curve]

CC(C)(C)c1ccc(COn2c(=O)c(-c3ccco3)[n+]([O-])c3ccccc32)cc1
AC50 [1]: 20.6 µM [falling, single point]

Fc1ccc(NCc2nnc(SCc3nnc(-c4ccccc4)o3)n2Cc2ccccc2)cc1
AC50 [1]: 35.5 µM [falling, single point]

COc1cccc(C(=O)NC(=O)Nc2cc(C)[nH]n2)c1
AC50 [1]: 2.82 µM [falling, partial curve]

O=C(O)C1Cc2ccccc2CN1C(=O)COc1ccc(Cl)cc1Cl (configuration not stated)
AC50 [1]: 12.6 µM [rising, single point]

Cc1cc(C)n2nc(SCC3COc4ccccc4O3)nc2n1 (configuration not stated)
AC50 [1]: 2.51 µM [rising, partial curve, poor fit]

Oc1ccc(/C=N/N2CCCCC2)cc1O
AC50 [1]: 0.316 µM [rising, full curve]

Oc1ccccc1Nc1nc(NCc2ccco2)c2ccccc2n1
AC50 [1]: 35.5 µM [falling, single point]

CC(=O)Nc1ccc(S(=O)(=O)NCCSCc2c(Cl)cccc2Cl)cc1
AC50 [1]: 35.5 µM [falling, single point]

O=C(/C=C/c1ccco1)NC(=S)Nc1cccc([N+](=O)[O-])c1
AC50 [1]: 0.116 µM [rising, full curve, poor fit]

Cc1ccc(NC(=O)c2c(Cl)n(C)c3ccccc23)cc1
AC50 [1]: 35.5 µM [falling, single point]
